Assay results taken from publication PMC7931231.

The chains behind the UniProt entries cited, without tags or fusion partners. Where a name states a change or a piece, a line headed by the entry shows the natural chain unless it says otherwise.
UniProt Q16740: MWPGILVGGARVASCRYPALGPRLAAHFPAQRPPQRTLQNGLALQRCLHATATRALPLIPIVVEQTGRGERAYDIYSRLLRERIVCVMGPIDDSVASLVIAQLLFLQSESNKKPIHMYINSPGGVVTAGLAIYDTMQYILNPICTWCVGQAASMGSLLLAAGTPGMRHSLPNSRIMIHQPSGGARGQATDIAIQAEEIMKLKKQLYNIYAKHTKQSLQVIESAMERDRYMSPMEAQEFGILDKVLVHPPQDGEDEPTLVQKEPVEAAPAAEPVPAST
UniProt P07339: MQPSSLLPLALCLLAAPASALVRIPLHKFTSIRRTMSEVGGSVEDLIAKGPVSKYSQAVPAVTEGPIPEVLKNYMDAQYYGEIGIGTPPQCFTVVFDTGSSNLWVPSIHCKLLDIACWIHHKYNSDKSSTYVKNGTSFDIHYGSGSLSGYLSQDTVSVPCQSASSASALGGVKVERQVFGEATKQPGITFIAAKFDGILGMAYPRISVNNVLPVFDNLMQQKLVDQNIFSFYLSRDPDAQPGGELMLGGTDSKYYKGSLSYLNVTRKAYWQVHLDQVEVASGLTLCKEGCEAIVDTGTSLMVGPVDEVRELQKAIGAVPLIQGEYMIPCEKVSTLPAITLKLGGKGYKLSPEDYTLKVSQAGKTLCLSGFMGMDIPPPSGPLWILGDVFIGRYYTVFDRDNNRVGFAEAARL
UniProt P04406: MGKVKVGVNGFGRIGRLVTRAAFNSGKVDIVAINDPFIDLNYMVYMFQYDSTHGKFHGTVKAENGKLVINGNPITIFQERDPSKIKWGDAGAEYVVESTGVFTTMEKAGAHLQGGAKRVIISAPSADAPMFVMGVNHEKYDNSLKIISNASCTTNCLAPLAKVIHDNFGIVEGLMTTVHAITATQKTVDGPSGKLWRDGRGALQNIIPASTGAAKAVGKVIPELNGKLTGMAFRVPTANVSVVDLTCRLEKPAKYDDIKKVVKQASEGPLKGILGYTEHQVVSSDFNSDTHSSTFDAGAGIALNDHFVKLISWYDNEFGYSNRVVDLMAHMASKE

T1: Flag-NEK5 wild-type (NEK5^WT) (human) (UniProt Q6P3R8)
T1 sequence: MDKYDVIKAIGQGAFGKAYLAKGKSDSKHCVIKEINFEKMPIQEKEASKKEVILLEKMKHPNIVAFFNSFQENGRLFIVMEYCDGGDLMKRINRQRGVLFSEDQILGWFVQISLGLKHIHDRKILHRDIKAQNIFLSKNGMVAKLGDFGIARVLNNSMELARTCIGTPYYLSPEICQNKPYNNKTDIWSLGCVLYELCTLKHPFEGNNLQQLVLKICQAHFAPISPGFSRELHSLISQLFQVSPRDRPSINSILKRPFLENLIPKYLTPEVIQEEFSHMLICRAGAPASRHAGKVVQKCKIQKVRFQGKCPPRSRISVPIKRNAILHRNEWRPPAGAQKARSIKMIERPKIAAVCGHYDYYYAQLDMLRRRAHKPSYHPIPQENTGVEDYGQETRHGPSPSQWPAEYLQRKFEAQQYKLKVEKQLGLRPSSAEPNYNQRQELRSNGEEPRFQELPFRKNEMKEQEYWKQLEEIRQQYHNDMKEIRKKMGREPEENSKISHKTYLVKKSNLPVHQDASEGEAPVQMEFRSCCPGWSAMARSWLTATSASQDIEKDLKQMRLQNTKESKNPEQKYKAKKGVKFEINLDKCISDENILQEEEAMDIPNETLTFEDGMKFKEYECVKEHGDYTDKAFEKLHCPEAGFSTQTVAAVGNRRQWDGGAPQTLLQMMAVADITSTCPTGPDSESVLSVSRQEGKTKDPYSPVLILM


Molecular target: T1, Flag-NEK5 wild-type (NEK5^WT) (human)
Test: affinity purification with mass spectrometry; anti-FLAG IP of Flag-NEK5^WT from crude mitochondria of Flp-In T-REx 293T cells, LC-MS/MS; hits kept if in at least three replicates of FLAG-NEK5 and in none or one replicate of control-FLAG IP

Row | binding | Molecule
1 | binds | CLPP (from UniProt Q16740 57-277)
2 | binds | CTSD (from UniProt P07339)
3 | binds | GAPDH (from UniProt P04406 1-335)
4 | binds | SDHB (protein, UniProt P21912 29-280) AQTAAATAPRIKKFAIYRWDPDKAGDKPHMQTYEVDLNKCGPMVLDALIKIKNEVDSTLTFRRSCREGICGSCAMNINGGNTLACTRRIDTNLNKVSKIYPLPHMYVIKDLVPDLSNFYAQYKSIEPYLKKKDESQEGKQQYLQSIEEREKLDGLYECILCACCSTSCPSYWWNGDKYLGPAVLMQAYRWMIDSRDDFTEERLAKLQDPFSLYRCHTIMNCTRTCPKGLNPGKAIAEIKKMMATYKEKKASV
5 | binds | GPD1L (protein, UniProt Q8N335 1-351) MAAAPLKVCIVGSGNWGSAVAKIIGNNVKKLQKFASTVKMWVFEETVNGRKLTDIINNDHENVKYLPGHKLPENVVAMSNLSEAVQDADLLVFVIPHQFIHRICDEITGRVPKKALGITLIKGIDEGPEGLKLISDIIREKMGIDISVLMGANIANEVAAEKFCETTIGSKVMENGLLFKELLQTPNFRITVVDDADTVELCGALKNIVAVGAGFCDGLRCGDNTKAAVIRLGLMEMIAFARIFCKGQVSTATFLESCGVADLITTCYGGRNRRVAEAFARTGKTIEELEKEMLNGQKLQGPQTSAEVYRILKQKGLLDKFPLFTAVYQICYESRPVQEMLSCLQSHPEHT
6 | binds | LonP1 (endogenous, Flp-In T-REx 293T cells) (protein, UniProt P36776 68-959) FWEASSRGGGAFSGGEDASEGGAEEGAGGAGGSAGAGEGPVITALTPMTIPDVFPHLPLIAITRNPVFPRFIKIIEVKNKKLVELLRRKVRLAQPYVGVFLKRDDSNESDVVESLDEIYHTGTFAQIHEMQDLGDKLRMIVMGHRRVHISRQLEVEPEEPEAENKHKPRRKSKRGKKEAEDELSARHPAELAMEPTPELPAEVLMVEVENVVHEDFQVTEEVKALTAEIVKTIRDIIALNPLYRESVLQMMQAGQRVVDNPIYLSDMGAALTGAESHELQDVLEETNIPKRLYKALSLLKKEFELSKLQQRLGREVEEKIKQTHRKYLLQEQLKIIKKELGLEKDDKDAIEEKFRERLKELVVPKHVMDVVDEELSKLGLLDNHSSEFNVTRNYLDWLTSIPWGKYSNENLDLARAQAVLEEDHYGMEDVKKRILEFIAVSQLRGSTQGKILCFYGPPGVGKTSIARSIARALNREYFRFSVGGMTDVAEIKGHRRTYVGAMPGKIIQCLKKTKTENPLILIDEVDKIGRGYQGDPSSALLELLDPEQNANFLDHYLDVPVDLSKVLFICTANVTDTIPEPLRDRMEMINVSGYVAQEKLAIAERYLVPQARALCGLDESKAKLSSDVLTLLIKQYCRESGVRNLQKQVEKVLRKSAYKIVSGEAESVEVTPENLQDFVGKPVFTVERMYDVTPPGVVMGLAWTAMGGSTLFVETSLRRPQDKDAKGDKDGSLEVTGQLGEVMKESARIAYTFARAFLMQHAPANDYLVTSHIHLHVPEGATPKDGPSAGCTIVTALLSLAMGRPVRQNLAMTGEVSLTGKILPVGGIKEKTIAAKRAGVTCIVLPAENKKDFYDLAAFITEGLEVHFVEHYREIFDIAFPDEQAEALAVER

No constants are given. Whether binding was seen depends on the method and setting. Binding seen in cells or lysates may run through a third protein. Here binding means that the protein was enriched with, or labelled near, the bait; the list need not be complete. Tags and fused reporters may be left off the sequences shown.
